Data: article PMC5042004
No constants are given. Whether binding was seen depends on the method and setting. In cells and extracts the contact can be indirect. These calls come from enrichment with a bait or labelling near it, and not all partners need be listed. Values belong to the binder of their own block, whether it stands above or below them.

Amino acid sequences for entries named in this document (tags omitted). A change or cut given only in a name is not applied to a line headed by its entry.
UniProt P15056: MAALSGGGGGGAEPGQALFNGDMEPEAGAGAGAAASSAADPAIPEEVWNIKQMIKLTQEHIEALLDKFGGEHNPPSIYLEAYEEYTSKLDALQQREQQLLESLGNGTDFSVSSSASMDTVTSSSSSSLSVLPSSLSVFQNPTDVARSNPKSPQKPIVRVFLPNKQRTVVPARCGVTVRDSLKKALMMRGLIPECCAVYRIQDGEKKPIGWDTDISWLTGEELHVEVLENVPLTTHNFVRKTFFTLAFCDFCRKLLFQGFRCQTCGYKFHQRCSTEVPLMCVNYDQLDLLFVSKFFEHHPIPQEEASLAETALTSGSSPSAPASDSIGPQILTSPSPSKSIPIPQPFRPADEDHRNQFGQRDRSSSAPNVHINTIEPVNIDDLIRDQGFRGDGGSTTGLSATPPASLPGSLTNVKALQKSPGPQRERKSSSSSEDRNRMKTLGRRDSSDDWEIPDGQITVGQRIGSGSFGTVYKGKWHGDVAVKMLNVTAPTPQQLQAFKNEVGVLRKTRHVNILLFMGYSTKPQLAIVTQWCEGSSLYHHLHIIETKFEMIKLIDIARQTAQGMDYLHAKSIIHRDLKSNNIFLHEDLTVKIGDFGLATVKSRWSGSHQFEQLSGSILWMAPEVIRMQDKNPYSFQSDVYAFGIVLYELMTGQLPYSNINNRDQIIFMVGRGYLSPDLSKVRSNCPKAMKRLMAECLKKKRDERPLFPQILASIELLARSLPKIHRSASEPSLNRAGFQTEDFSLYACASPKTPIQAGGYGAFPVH

Experiments:
[1] = molecular target: B-Raf purified from MEFs (HA-tagged add-back or endogenous; the text does not tell which) (not stated (HA-tagged human cDNA or endogenous mouse)) (UniProt P15056); assay: affinity purification with mass spectrometry; IP of B-Raf from MEFs; the text does not tell whether HA-tagged add-back or endogenous B-Raf
[2] = molecular target: HA-tagged B-Raf^WT expressed in MCF-10A cells (UniProt P15056); assay: affinity purification with mass spectrometry; anti-HA agarose IP of HA-tagged B-Raf^WT from MCF-10A cells against empty vector cells
[3] = molecular target: HA-tagged B-Raf^D594A re-expressed in Braf deficient MEFs (human) (UniProt P15056); assay: affinity purification with mass spectrometry; anti-HA IP of HA-tagged B-Raf^WT or B-Raf^D594A from complemented Braf-/- MEFs expressing H-Ras^G12V::ER^TM; with or without 4-HT and 10 uM sorafenib; SILAC-based MS against vector control or B-Raf^WT IPs

binding [1]: binds
B1: PPP1R10, a regulatory subunit of the PP1 holo-phosphatase complex (mouse, MEFs) (protein, UniProt Q80W00 1-888)
chain: MGSGPIDPKELLKGLDSFLTRDGEVKSVDGISKIFSLMKEARKMVSRCTYLNIILQTRAPEVLVKFIDVGGYKLLNNWLTYSKTTNNIPLLQQILLTLQHLPLTVDHLKQNNTAKLVKQLSKSSEDEELRKLASVLVSDWMAVIRSQSSTQPAEKDKKKRKEEGKSRTTLPERPLTEVKAETRAEEAPEKKKEKPKSLRTTAPSHAKFRSTGLELDTPSLVPVKKNSSTVVVSDKYNLKPIPLKRQSATAAPGDAAPPAEKKYKPLNTAPNTTKEIKVKIIPPQPMEGLGFLDALNSAPVPGIKIKKKKKVLSPTAAKPSPFEGKTSTEQSTAKPSSPEPAPPAEPMDTDRPGTPVPPVEVPELMDAASSEPGALDAKPVDSPGDPNQLTRKGRKRKTVTWPEEGKLREYFYFELDETERVNVNKIKDFGEAAKREILSDRHAFETARRLSHDNMEEKVPWVCPRPLVLPSPLVIPGSNSQERYIQAEREKGILQELFLNKESPHEPDPEPYEPIPPKLIPLDEECAMDETPYVETLEPGGSGGSPDGAGGSKLPPVLANLMGSMGAGKSPQGPGGGGINVQEILTSIMGSPNSHPSEELLKQPDYSDKLKQMLVPHGLLGPGPVANGFPPGGPGGPKGMQHFPPGPGGPMPGPHGGPGGPVGPRLLGPPPPSRGGDPFWDGPGDPMRGGPMRGGPGPAPGPYHRGRGGRGGNEPPPPPPFRGARGGRSGGGPPNGRGGPGGGGMVGGGGHRPHEGPGGSMGSGHRSHDGPGGNMGSGHRSHDGPGGNMGGSGGHRSHEGPGHGGPHGHRPHDVPSHRGHDHRGPPPHEHRGHDGHGGGGHRGHDGGHSHGGDMSNRPVCRHFMMKGNCRYENNCAFYHPGVNGPPLP

binding [2]: binds
B2: FKBP5 (human, MCF-10A) (protein, UniProt Q13451 1-457)
chain: MTTDEGAKNNEESPTATVAEQGEDITSKKDRGVLKIVKRVGNGEETPMIGDKVYVHYKGKLSNGKKFDSSHDRNEPFVFSLGKGQVIKAWDIGVATMKKGEICHLLCKPEYAYGSAGSLPKIPSNATLFFEIELLDFKGEDLFEDGGIIRRTKRKGEGYSNPNEGATVEIHLEGRCGGRMFDCRDVAFTVGEGEDHDIPIGIDKALEKMQREEQCILYLGPRYGFGEAGKPKFGIEPNAELIYEVTLKSFEKAKESWEMDTKEKLEQAAIVKEKGTVYFKGGKYMQAVIQYGKIVSWLEMEYGLSEKESKASESFLLAAFLNLAMCYLKLREYTKAVECCDKALGLDSANEKGLYRRGEAQLLMNEFESAKGDFEKVLEVNPQNKAARLQISMCQKKAKEHNERDRRIYANMFKKFAEQDAKEEANKAMGKKTSEGVTNEKGTDSQAMEEEKPEGHV

binding [3]: binds
B3: sphingosine-1-phosphate lyase (mouse, MEFs) (enzyme, UniProt Q8R0X7 1-568)
chain: MPGTDLLKLKDFEPYLEILESYSTKAKNYVNGYCTKYEPWQLIAWSVLCTLLIVWVYELIFQPESLWSRFKKKLFKLIRKMPFIGRKIEQQVSKAKKDLVKNMPFLKVDKDYVKTLPAQGMGTAEVLERLKEYSSMDGSWQEGKASGAVYNGEPKLTELLVQAYGEFTWSNPLHPDIFPGLRKLEAEIVRMTCSLFNGGPDSCGCVTSGGTESILMACKAYRDLALEKGIKTPEIVAPESAHAAFDKAAHYFGMKIVRVALKKNMEVDVQAMKRAISRNTAMLVCSTPQFPHGVMDPVPEVAKLAVRYKIPLHVDACLGGFLIVFMEKAGYPLEKPFDFRVKGVTSISADTHKYGYAPKGSSVVMYSNEKYRTYQFFVGADWQGGVYASPSIAGSRPGGIIAACWAALMHFGENGYVEATKQIIKTARFLKSELENIKNIFIFGDPQLSVIALGSNDFDIYRLSNMMSAKGWNFNYLQFPRSIHFCITLVHTRKRVAIQFLKDIRESVTQIMKNPKAKTTGMGAIYGMAQATIDRKLVAEISSVFLDCLYTTDPVTQGNQMNGSPKPR
